Literature values in US20130253056A1, “Continuous Administration of Levodopa and/or Dopa Decarboxylase Inhibitors and Compositions for Same” (NEURODERM, LTD., priority 2009, published 2013).
Some of these results come from one statement about several compounds together.

Conditions: oral dopa decarboxylase inhibitor given concurrently with levodopa; cited from earlier work

C[C@@](Cc1ccc(O)c(O)c1)(NN)C(=O)O [Carbidopa, (−)-L-α-hydrazino-α-methyl-β-(3,4-dihydroxybenzene)propanoic acid monohydrate]
reduction of the levodopa dose required for a clinical response: 60-80%

NC(CO)C(=O)NNCc1ccc(O)c(O)c1O (centres unmarked) [benserazide]
reduction of the levodopa dose required for a clinical response: 60-80%
